According to patent publication US12378320B2, “Methods for treating pancreatitis” (Cold Spring Harbor Laboratory, priority 2018, dated 2025):

System: CA19-9 modified proteins
Experiment: CA19-9 IP/MS (iTRAQ) of organoid conditioned media after Dox treatment
Parameters: species or system mouse
Settings: for 17 0H 5B1 (CA19-9 IP/MS relative abundance) / 17 0H NS19 (CA19-9 IP/MS relative abundance) / 17 8H 5B1 (CA19-9 IP/MS relative abundance) / 17 8H NS19 (CA19-9 IP/MS relative abundance): A217 organoid conditioned media; for 17 0H NS19 (CA19-9 IP/MS relative abundance) / 17 8H NS19 (CA19-9 IP/MS relative abundance) / 20 0H NS19 (CA19-9 IP/MS relative abundance) / 20 8H NS19 (CA19-9 IP/MS relative abundance): NS19-9; for 17 0H NS19 (CA19-9 IP/MS relative abundance): every printed value in this column is 1; for 20 0H 5B1 (CA19-9 IP/MS relative abundance) / 20 0H NS19 (CA19-9 IP/MS relative abundance) / 20 8H 5B1 (CA19-9 IP/MS relative abundance) / 20 8H NS19 (CA19-9 IP/MS relative abundance): A220 organoid conditioned media
[1] = CA19-9 IP/MS relative abundance, A217 (genetic negative) organoid conditioned media, 0H (before treatment), IP with NS19-9, reference channel = 1
[2] = CA19-9 IP/MS relative abundance, A217 (genetic negative) organoid conditioned media, after 8 hours, IP with 5B1
[3] = CA19-9 IP/MS relative abundance, A217 (genetic negative) organoid conditioned media, after 8 hours, IP with NS19-9
[4] = CA19-9 IP/MS relative abundance, A220 (C;R^LSL;F) organoid conditioned media, 0H (before treatment), IP with 5B1
[5] = A217 (genetic negative) organoids conditioned media, after 8 hours of treatment, CA19-9 IP with 5B1, relative to 17 0H NS19
[6] = A217 (genetic negative) organoids conditioned media, after 8 hours of treatment, CA19-9 IP with NS19-9, relative to 17 0H NS19
[7] = A217 (genetic negative) organoids conditioned media, before treatment (0H), CA19-9 IP with NS19-9, relative abundance, reference channel
[8] = A220 (C;R^LSL;F) organoids conditioned media, before treatment (0H), CA19-9 IP with 5B1, relative to 17 0H NS19

Substance | 17 0H NS19 [1] | 17 8H 5B1 [2] | 17 8H NS19 [3] | 20 0H 5B1 [4] | also measured
P07901 | 1 | 4.407 | 0.689 | 3.683 | 
O70514 |  |  |  |  | 17 0H 5B1 (CA19-9 IP/MS relative abundance): 2.317; 17 0H NS19 (CA19-9 IP/MS relative abundance): 1; 17 8H 5B1 (CA19-9 IP/MS relative abundance): 3.106; 17 8H NS19 (CA19-9 IP/MS relative abundance): 0.606; 20 0H 5B1 (CA19-9 IP/MS relative abundance): 1.595; 20 0H NS19 (CA19-9 IP/MS relative abundance): 0.656; 20 8H 5B1 (CA19-9 IP/MS relative abundance): 3.708; 20 8H NS19 (CA19-9 IP/MS relative abundance): 0.694
Q01853 |  |  |  |  | 17 8H 5B1 [5]: 1.814; 17 8H NS19 [6]: 0.773; 17 0H NS19 [7]: 1; 20 0H 5B1 [8]: 1.283
Q04447 |  |  |  |  | 17 8H 5B1 [5]: 2.713; 17 8H NS19 [6]: 0.673; 17 0H NS19 [7]: 1; 20 0H 5B1 [8]: 1.888
P68372 | 1 | 4.135 | 0.585 | 3.906 | 
P31001 | 1 | 21.134 | 0.743 | 20.623 | 
P60843 |  |  |  |  | 17 8H 5B1 [5]: 3.945; 17 8H NS19 [6]: 0.617; 17 0H NS19 [7]: 1; 20 0H 5B1 [8]: 2.78
P11983 | 1 | 3.706 | 0.605 | 3.052 | 
Q9JHU4 |  |  |  |  | 17 8H 5B1 [5]: 1.14; 17 8H NS19 [6]: 0.538; 17 0H NS19 [7]: 1; 20 0H 5B1 [8]: 1.088
P11499 | 1 | 5.452 | 0.678 | 4.681 | 
P26443 | 1 | 7.206 | 0.564 | 6.1 | 
P63017 | 1 | 6.817 | 0.77 | 5.57 | 
P68373 | 1 | 6.264 | 0.65 | 4.46 | 
P02104 |  |  |  |  | 17 8H 5B1 [5]: 3.568; 17 8H NS19 [6]: 0.977; 17 0H NS19 [7]: 1; 20 0H 5B1 [8]: 2.878
P05213 | 1 | 6.52 | 0.679 | 4.707 | 
Q9CWF2 | 1 | 4.413 | 0.687 | 4.113 | 
Q9D892 |  |  |  |  | 17 0H 5B1 (CA19-9 IP/MS relative abundance): 1.766; 17 0H NS19 (CA19-9 IP/MS relative abundance): 1; 17 8H 5B1 (CA19-9 IP/MS relative abundance): 2.106; 17 8H NS19 (CA19-9 IP/MS relative abundance): 0.855; 20 0H 5B1 (CA19-9 IP/MS relative abundance): 1.611; 20 0H NS19 (CA19-9 IP/MS relative abundance): 0.278; 20 8H 5B1 (CA19-9 IP/MS relative abundance): 2.111; 20 8H NS19 (CA19-9 IP/MS relative abundance): 0.635
P60766 |  |  |  |  | 17 8H 5B1 [5]: 2.179; 17 8H NS19 [6]: 0.616; 17 0H NS19 [7]: 1; 20 0H 5B1 [8]: 1.597
P10126 | 1 | 4.381 | 0.652 | 3.724 | 
P01837 | 1 | 0.091 | 0.885 | 0.057 | 
P60122 | 1 | 1.961 | 0.608 | 1.597 | 
P01654 | 1 | 0.844 | 0.717 | 0.743 | 
Q9QZD9 |  |  |  |  | 17 0H 5B1 (CA19-9 IP/MS relative abundance): 3.088; 17 8H 5B1 (CA19-9 IP/MS relative abundance): 3.321; 17 8H NS19 (CA19-9 IP/MS relative abundance): 0.455; 20 0H 5B1 (CA19-9 IP/MS relative abundance): 2.689; 20 0H NS19 (CA19-9 IP/MS relative abundance): 0.427; 20 8H 5B1 (CA19-9 IP/MS relative abundance): 2.871; 20 8H NS19 (CA19-9 IP/MS relative abundance): 0.338
